Data as given in PubChem BioAssay AID1259308 (NCATS, 2017)
This is an unselected part of about 59,000 reagents. Of all reagents, about 1,510 (2.6%) got an active call. 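Calls use total luciferase alone and ignore viability, so some active siRNAs may act by altering cell number.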 A number with no mark means an inactive call. No sequences are given here.

- Purpose: 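Genes whose loss raises luciferase production in HEK293 cells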 (primary screen)
- Cell system: human HEK293 embryonic kidney cells stably expressing firefly luciferase (HEK-CMV-Luc2-Hygro)
- Reagent: single siRNA against human genes, 0.8 pmol siRNA per well
- Time to read-out: 72 h
- Measured: 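Luciferase light (ONE-Glo) measured on one replicate plate set and viability (CellTiter-Glo) on the other, scaled to a negative control siRNA, with robust z-scores and luciferase per cell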
- Scale: total luciferase, z-score and total luciferase, % of control: higher = more reporter protein produced; luciferase per cell, z-score: higher = more reporter output per viable cell; viable cells, % of control: higher = more viable cells
- Call rule: 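Active when the median/MAD z-score for overall luciferase is greater than 3; a gene was taken forward for validation with new siRNAs if at least two of its three siRNAs passed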
- Calls: active = raised luciferase; inactive = no rise

| gene | PubChem SID | total luciferase, z-score | total luciferase, % of control | luciferase per cell, z-score | viable cells, % of control |
| --- | --- | --- | --- | --- | --- |
| C1orf141 (chromosome 1 open reading frame 141) | SID160767040 | -0.562 | 70.7 | 0.321 | 72.6 |
| C1orf141 (chromosome 1 open reading frame 141) | SID160767041 | -0.143 | 79 | -0.0287 | 89 |
| C1orf141 (chromosome 1 open reading frame 141) | SID160767042 | 1.23 | 106 | 0.875 | 94.4 |
| RNASE10 (ribonuclease A family member 10 (inactive)) | SID160764132 | 0.99 | 102 | 1.49 | 76.7 |
| RNASE10 (ribonuclease A family member 10 (inactive)) | SID160764133 | -0.426 | 73.4 | -0.653 | 97.4 |
| RNASE10 (ribonuclease A family member 10 (inactive)) | SID160764134 | 0.218 | 86.2 | 0.294 | 89.2 |
| ST3GAL5 (ST3 beta-galactoside alpha-2,3-sialyltransferase 5) | SID160721010 | -2.64 | 29.3 | -3.86 | 90.5 |
| ST3GAL5 (ST3 beta-galactoside alpha-2,3-sialyltransferase 5) | SID160721011 | 0.143 | 84.7 | -0.318 | 103 |
| ST3GAL5 (ST3 beta-galactoside alpha-2,3-sialyltransferase 5) | SID160721012 | 0.279 | 87.4 | 0.153 | 93.8 |
| CDR1 (cerebellar degeneration related 1) | SID160732272 | 0.757 | 96.9 | 1.39 | 75.1 |
| CDR1 (cerebellar degeneration related 1) | SID160741270 | -0.172 | 78.5 | 0.782 | 71.4 |
| CDR1 (cerebellar degeneration related 1) | SID160741281 | 0.411 | 90.1 | 0.785 | 81.8 |
| PABPN1 (poly(A) binding protein nuclear 1) | SID160719639 | 3.94 (active) | 160 | 4.04 | 61.8 |
| PABPN1 (poly(A) binding protein nuclear 1) | SID160719640 | 0.98 | 101 | 1.47 | 77 |
| PABPN1 (poly(A) binding protein nuclear 1) | SID160719641 | 0.802 | 97.8 | 0.915 | 85.9 |
| RNASE7 (ribonuclease A family member 7) | SID160732029 | 0.398 | 89.8 | 1.97 | 59.7 |
| RNASE7 (ribonuclease A family member 7) | SID160752532 | 1.48 | 111 | 1.49 | 84.1 |
| RNASE7 (ribonuclease A family member 7) | SID160752533 | -1.4 | 54.1 | -0.703 | 72.7 |
| NSG2 (neuronal vesicle trafficking associated 2) | SID160741100 | 0.539 | 92.6 | 0.316 | 95.2 |
| NSG2 (neuronal vesicle trafficking associated 2) | SID160741101 | 1.25 | 107 | 1.08 | 89.8 |
| NSG2 (neuronal vesicle trafficking associated 2) | SID160741102 | 1.84 | 118 | -0.0268 | 133 |
| MYOC (myocilin) | SID160777730 | -0.949 | 63 | -0.0939 | 72.2 |
| MYOC (myocilin) | SID160777731 | -0.0918 | 80.1 | 0.442 | 79.6 |
| MYOC (myocilin) | SID160777732 | -0.835 | 65.3 | -0.132 | 75.5 |
| HSF5 (heat shock transcription factor 5) | SID160756188 | -0.342 | 75.1 | -0.954 | 108 |
| HSF5 (heat shock transcription factor 5) | SID160756190 | -1.32 | 55.6 | -0.928 | 79.4 |
| HSF5 (heat shock transcription factor 5) | SID160756191 | 0.0568 | 83 | 0.143 | 89.3 |
| THBS2 (thrombospondin 2) | SID160718035 | 0.801 | 97.8 | 0.327 | 100 |
| THBS2 (thrombospondin 2) | SID160718036 | -1.48 | 52.5 | -0.946 | 75.3 |
| THBS2 (thrombospondin 2) | SID160731831 | -2.3 | 36.2 | -2.15 | 71.3 |
| ADRA2C (adrenoceptor alpha 2C) | SID160723641 | 0.734 | 96.5 | 1.43 | 74 |
| ADRA2C (adrenoceptor alpha 2C) | SID160723642 | -0.209 | 77.7 | -0.397 | 96.4 |
| ADRA2C (adrenoceptor alpha 2C) | SID160723643 | 2.9 | 140 | 2.51 | 80.5 |
| MGST3 (microsomal glutathione S-transferase 3) | SID160777235 | -1.07 | 60.7 | 0.638 | 57.3 |
| MGST3 (microsomal glutathione S-transferase 3) | SID160777236 | 0.278 | 87.4 | 0.55 | 84.5 |
| MGST3 (microsomal glutathione S-transferase 3) | SID160777237 | -0.312 | 75.7 | -1.05 | 111 |
| RUFY4 (RUN and FYVE domain containing 4) | SID160763518 | 1.19 | 106 | 1.56 | 78.3 |
| RUFY4 (RUN and FYVE domain containing 4) | SID160763519 | -0.0934 | 80 | -0.495 | 102 |
| RUFY4 (RUN and FYVE domain containing 4) | SID160763520 | -0.555 | 70.8 | -0.0524 | 80.3 |
| SPEF2 (sperm flagellar and cilia associated 2) | SID160749786 | 0.0572 | 83 | -0.397 | 103 |
| SPEF2 (sperm flagellar and cilia associated 2) | SID160749787 | -0.0671 | 80.6 | -0.429 | 101 |
| SPEF2 (sperm flagellar and cilia associated 2) | SID160749788 | -1.35 | 55 | -0.345 | 67.3 |
| ISG15 (ISG15 ubiquitin like modifier) | SID160722675 | 1.72 | 116 | 1.74 | 82 |
| ISG15 (ISG15 ubiquitin like modifier) | SID160724229 | -0.734 | 67.3 | -0.632 | 88.8 |
| ISG15 (ISG15 ubiquitin like modifier) | SID160735237 | 0.8 | 97.8 | 1.46 | 74.5 |
| PIM1 (Pim-1 proto-oncogene, serine/threonine kinase) | SID160714341 | -0.123 | 79.4 | 0.775 | 72.4 |
| PIM1 (Pim-1 proto-oncogene, serine/threonine kinase) | SID160714342 | -1.42 | 53.7 | -1.26 | 83.6 |
| PIM1 (Pim-1 proto-oncogene, serine/threonine kinase) | SID160714343 | -0.889 | 64.2 | -0.759 | 87.6 |
| ST8SIA2 (ST8 alpha-N-acetyl-neuraminide alpha-2,8-sialyltransferase 2) | SID160719658 | -1.7 | 48.1 | -2.2 | 95.9 |
| ST8SIA2 (ST8 alpha-N-acetyl-neuraminide alpha-2,8-sialyltransferase 2) | SID160719659 | -1.61 | 49.9 | -1.2 | 76.5 |
| ST8SIA2 (ST8 alpha-N-acetyl-neuraminide alpha-2,8-sialyltransferase 2) | SID160731962 | -0.699 | 68 | -1.34 | 108 |
| PAF1 (PAF1 component of Paf1/RNA polymerase II complex) | SID160741983 | 0.0464 | 82.8 | 0.85 | 74 |
| PAF1 (PAF1 component of Paf1/RNA polymerase II complex) | SID160741984 | -0.125 | 79.4 | 0.384 | 80.2 |
| PAF1 (PAF1 component of Paf1/RNA polymerase II complex) | SID160741985 | -0.862 | 64.7 | 0.21 | 68.4 |
| CCDC80 (coiled-coil domain containing 80) | SID160759165 | -0.619 | 69.6 | -0.68 | 93 |
| CCDC80 (coiled-coil domain containing 80) | SID160759166 | 0.279 | 87.4 | 0.272 | 91 |
| CCDC80 (coiled-coil domain containing 80) | SID160759167 | 0.372 | 89.3 | -0.359 | 110 |

In a second layout: results already given
gene,PubChem SID,"total luciferase, z-score","total luciferase, % of control","luciferase per cell, z-score","viable cells, % of control"
SPEF2 (sperm flagellar and cilia associated 2),SID160749786,0.0572,83,-0.397,103
SPEF2 (sperm flagellar and cilia associated 2),SID160749787,-0.0671,80.6,-0.429,101
SPEF2 (sperm flagellar and cilia associated 2),SID160749788,-1.35,55,-0.345,67.3
ISG15 (ISG15 ubiquitin like modifier),SID160722675,1.72,116,1.74,82
ISG15 (ISG15 ubiquitin like modifier),SID160724229,-0.734,67.3,-0.632,88.8
